Values of other authors, collected in article PMC9693145, “Optimization of Extraction Conditions and Cytotoxic Activity of Rapanone in Comparison to Its Homologue, Embelin” (Molecules, 2022).

System: PC3
Settings: read-out: IC50 of doxorubicin towards PC3 lines; cited from earlier work

COc1cccc2c1C(=O)c1c(O)c3c(c(O)c1C2=O)C[C@@](O)(C(=O)CO)C[C@@H]3O[C@H]1C[C@H](N)[C@H](O)[C@H](C)O1 [Doxorubicin]
IC50: 510 nM
